Reference: article doi:10.1101/2024.08.31.609994
Results are given in words; binding and its absence hold for the method and conditions named. Binding seen in cells or lysates may run through a third protein. Some results given as binding are weak or reduced against the parent protein; the word gives no strength.

Sequences of proteins named here, by UniProt entry; tags and fusion partners are left off.
UniProt P32302: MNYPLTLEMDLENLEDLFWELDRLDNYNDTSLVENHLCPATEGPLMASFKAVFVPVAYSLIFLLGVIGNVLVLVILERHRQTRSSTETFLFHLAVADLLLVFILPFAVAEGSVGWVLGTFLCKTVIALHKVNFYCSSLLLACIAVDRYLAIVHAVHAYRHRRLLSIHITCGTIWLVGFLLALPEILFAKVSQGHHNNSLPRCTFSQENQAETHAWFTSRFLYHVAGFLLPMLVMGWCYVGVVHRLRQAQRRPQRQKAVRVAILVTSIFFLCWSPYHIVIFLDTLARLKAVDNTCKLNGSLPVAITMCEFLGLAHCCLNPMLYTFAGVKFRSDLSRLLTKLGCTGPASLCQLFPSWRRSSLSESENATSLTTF

Biological target: T1, Chemokine (C-X-C motif) ligand 13 (CXCL13) (human (endogenous in Raji)) (UniProt O43927)
T1 sequence: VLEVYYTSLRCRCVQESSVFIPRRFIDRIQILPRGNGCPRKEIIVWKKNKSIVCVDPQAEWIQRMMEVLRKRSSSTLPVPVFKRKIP
Test: co-IP

Substance: C-X-C chemokine receptor type 5 (CXCR5) (from UniProt P32302 1-372)
- binding: binds
